Values of other authors as cited in paper PMC10955584, “New Benzimidazole-Triazole Derivatives as Topoisomerase I Inhibitors: Design, Synthesis, Anticancer Screening, and Molecular Modeling Studies” (ACS Omega, 2024).

System: HepG-2, HCT-116, MCF-7,and HeLa cancer cells lines
Set-up: method as in PMID 36651111
Details: range over four cell lines; read-out: IC50 against HepG-2, HCT-116, MCF-7 and HeLa cancer cell lines; cited from earlier work

## COc1cccc2c1C(=O)c1c(O)c3c(c(O)c1C2=O)C[C@@](O)(C(=O)CO)C[C@@H]3O[C@H]1C[C@H](N)[C@H](O)[C@H](C)O1 [doxorubicin, reference compound]
  IC50: 4.17 to 5.57 µM
